# Results taken from PubChem BioAssay.
# The other results are listed elsewhere or left out. Entries with a potency or affinity are not part of this list. Where no call is shown, the source marks the result inconclusive.
# Experiment: PubChem AID 1597
# Settings: Drosophila SCA1 polyglutamine model, at 1 µM, stronger effect = higher value
row,SMILES,suppression of toxicity
1,C[C@]12CCC3c4ccc(OC(=O)CCC(=O)O)cc4CCC3C1CCC2=O (stereo not given in full),10
2,CON,16.4
3,CC(=O)N1CCN(c2ccc(OCC3CO[C@](Cn4ccnc4)(c4ccc(Cl)cc4Cl)O3)cc2)CC1 (stereo not given in full),0
4,CCn1cc(C(=O)O)c(=O)c2ccc(C)nc21,7.29
5,Oc1c(Cl)cc(Cl)cc1Sc1cc(Cl)cc(Cl)c1O,2.86
6,CN[C@@H]1[C@H](O)[C@H](NC)[C@H]2O[C@@]3(O)C(=O)C[C@@H](C)O[C@H]3O[C@@H]2[C@H]1O,13.6
7,NC(=O)c1ncn([C@@H]2O[C@H](CO)[C@@H](O)[C@H]2O)c1O,5.71
8,NS(=O)(=O)c1cc2c(cc1Cl)NC(C1CC3C=CC1C3)NS2(=O)=O (stereo not given),4.29
9,CN1C(=O)CC[C@H]1c1cccnc1,0
10,CC12CC[C@@H]3c4ccc(O)cc4CCC3[C@@H]1CCC2=O (stereo not given in full),2.86
11,CC(=O)[C@H]1CCC2C3CC=C4C[C@@H](O)CC[C@]4(C)C3CC[C@@]21C (stereo not given in full),5
12,COc1ccc(-c2cc(=O)c3c(O)cc(O[C@@H]4O[C@H](CO[C@H]5O[C@H](C)[C@@H](O)[C@H](O)[C@@H]5O)[C@@H](O)[C@H](O)[C@H]4O)cc3o2)cc1O,0
13,CS(=O)(=O)Nc1ccc([N+](=O)[O-])cc1Oc1ccccc1,3.57
14,Nc1ccc(S(=O)(=O)c2ccc(N)cc2)cc1,1.43
15,CC(C)=CCc1c2c(c3occ(-c4ccc(O)c(O)c4)c(=O)c3c1O)C=CC(C)(C)O2,0
16,CC(C)CC1C(=O)N2CCC[C@H]2C2(O)O[C@](NC(=O)C3C=C4c5cccc6[nH]c(Br)c(c56)C[C@H]4N(C)C3)(C(C)C)C(=O)N12 (stereo not given in full),3.58
17,CCN(CC)CCOC(=O)C(Cc1cccc2ccccc12)CC1CCCO1 (stereo not given),7.86
18,CCC(=O)c1ccc2c(c1)N(CC(C)N(C)C)c1ccccc1S2 (stereo not given),5
19,Cc1cc(C2CCCCC2)n(O)c(=O)c1,3.58
20,CN1CCN(CC(=O)N2c3ccccc3C(=O)Nc3cccnc32)CC1,12.1

row,SMILES,suppression of toxicity
1,COc1cc(C)c2c(=O)cc(-c3ccccc3)oc2c1,5.71
2,CC1=C(/C=C/C(C)=C/C=C/C(C)=C/CO)C(C)(C)CCC1,8.57
3,CC1(C)C2CC[C@]3(C)C(C(=O)C=C4[C@@H]5C[C@@](C)(C(=O)O)CC[C@]5(C)CC[C@]43C)[C@@]2(C)CC[C@@H]1O (stereo not given in full),0
4,CC[C@]12CCCN3CCc4c(n(c5ccccc45)[C@](O)(C(=O)OC)C1)[C@@H]32,4.29
5,NCCCCNCCCN,2.86
6,CC[C@H]1OC(=O)[C@H](C)[C@@H](O[C@H]2C[C@@](C)(OC)[C@@H](O)[C@H](C)O2)[C@H](C)[C@@H](O[C@@H]2O[C@H](C)C[C@H](N(C)C)[C@H]2O)[C@](C)(O)C[C@@H](C)CN(C)[C@H](C)[C@@H](O)[C@]1(C)O,10
7,CCN1CCCC(OC(=O)C(c2ccccc2)c2ccccc2)C1 (stereo not given),8.57
8,CC(C)CC1NC(=O)CNC1=O (stereo not given),5
9,CC1(C)OC(=O)NC1=O,0.715
10,CCN(CC)CCNC(=O)c1ccc(N)cc1,2.86
11,Cc1ccc(C(=O)c2ccc(CC(=O)O)n2C)cc1,15.7
12,NC(=O)c1ncn([C@@H]2O[C@H](CO)[C@@H](O)[C@H]2O)n1,5
13,CC/C(=C(\c1ccccc1)c1ccc(OCCN(C)C)cc1)c1ccccc1,1.43
14,Nc1ncnc2c1ncn2C1O[C@H](COP(=O)(O)O)[C@@H](O)[C@H]1O (stereo not given in full),2.15
15,CC[C@]12CCCN3CCc4c(n(c5ccccc45)C(=O)C1)[C@@H]32,6.42
16,C1CCC(C(CC2CCCCN2)C2CCCCC2)CC1 (stereo not given),3.58
17,CC(C)NCC(O)c1ccc(O)c(O)c1 (stereo not given),4.3
18,CC(=O)Oc1ccccc1C(=O)O,3.57
19,Cc1c(NC(C)C)c(=O)n(-c2ccccc2)n1C,10.7
20,Oc1cc(O)c2c(c1)O[C@H](c1ccc(O)c(O)c1)[C@@H](O)C2,6.42

# 3 entries already listed, sorted by number of heavy atoms, descending.
row,SMILES,suppression of toxicity
18,CCC(=O)c1ccc2c(c1)N(CC(C)N(C)C)c1ccccc1S2 (stereo not given),5
2,CC1=C(/C=C/C(C)=C/C=C/C(C)=C/CO)C(C)(C)CCC1,8.57
10,CCN(CC)CCNC(=O)c1ccc(N)cc1,2.86
